Results on two molecules are retold here after publication PMC11564727.

Chains of the proteins cited; added tags and fusions are not shown.
UniProt Q92793: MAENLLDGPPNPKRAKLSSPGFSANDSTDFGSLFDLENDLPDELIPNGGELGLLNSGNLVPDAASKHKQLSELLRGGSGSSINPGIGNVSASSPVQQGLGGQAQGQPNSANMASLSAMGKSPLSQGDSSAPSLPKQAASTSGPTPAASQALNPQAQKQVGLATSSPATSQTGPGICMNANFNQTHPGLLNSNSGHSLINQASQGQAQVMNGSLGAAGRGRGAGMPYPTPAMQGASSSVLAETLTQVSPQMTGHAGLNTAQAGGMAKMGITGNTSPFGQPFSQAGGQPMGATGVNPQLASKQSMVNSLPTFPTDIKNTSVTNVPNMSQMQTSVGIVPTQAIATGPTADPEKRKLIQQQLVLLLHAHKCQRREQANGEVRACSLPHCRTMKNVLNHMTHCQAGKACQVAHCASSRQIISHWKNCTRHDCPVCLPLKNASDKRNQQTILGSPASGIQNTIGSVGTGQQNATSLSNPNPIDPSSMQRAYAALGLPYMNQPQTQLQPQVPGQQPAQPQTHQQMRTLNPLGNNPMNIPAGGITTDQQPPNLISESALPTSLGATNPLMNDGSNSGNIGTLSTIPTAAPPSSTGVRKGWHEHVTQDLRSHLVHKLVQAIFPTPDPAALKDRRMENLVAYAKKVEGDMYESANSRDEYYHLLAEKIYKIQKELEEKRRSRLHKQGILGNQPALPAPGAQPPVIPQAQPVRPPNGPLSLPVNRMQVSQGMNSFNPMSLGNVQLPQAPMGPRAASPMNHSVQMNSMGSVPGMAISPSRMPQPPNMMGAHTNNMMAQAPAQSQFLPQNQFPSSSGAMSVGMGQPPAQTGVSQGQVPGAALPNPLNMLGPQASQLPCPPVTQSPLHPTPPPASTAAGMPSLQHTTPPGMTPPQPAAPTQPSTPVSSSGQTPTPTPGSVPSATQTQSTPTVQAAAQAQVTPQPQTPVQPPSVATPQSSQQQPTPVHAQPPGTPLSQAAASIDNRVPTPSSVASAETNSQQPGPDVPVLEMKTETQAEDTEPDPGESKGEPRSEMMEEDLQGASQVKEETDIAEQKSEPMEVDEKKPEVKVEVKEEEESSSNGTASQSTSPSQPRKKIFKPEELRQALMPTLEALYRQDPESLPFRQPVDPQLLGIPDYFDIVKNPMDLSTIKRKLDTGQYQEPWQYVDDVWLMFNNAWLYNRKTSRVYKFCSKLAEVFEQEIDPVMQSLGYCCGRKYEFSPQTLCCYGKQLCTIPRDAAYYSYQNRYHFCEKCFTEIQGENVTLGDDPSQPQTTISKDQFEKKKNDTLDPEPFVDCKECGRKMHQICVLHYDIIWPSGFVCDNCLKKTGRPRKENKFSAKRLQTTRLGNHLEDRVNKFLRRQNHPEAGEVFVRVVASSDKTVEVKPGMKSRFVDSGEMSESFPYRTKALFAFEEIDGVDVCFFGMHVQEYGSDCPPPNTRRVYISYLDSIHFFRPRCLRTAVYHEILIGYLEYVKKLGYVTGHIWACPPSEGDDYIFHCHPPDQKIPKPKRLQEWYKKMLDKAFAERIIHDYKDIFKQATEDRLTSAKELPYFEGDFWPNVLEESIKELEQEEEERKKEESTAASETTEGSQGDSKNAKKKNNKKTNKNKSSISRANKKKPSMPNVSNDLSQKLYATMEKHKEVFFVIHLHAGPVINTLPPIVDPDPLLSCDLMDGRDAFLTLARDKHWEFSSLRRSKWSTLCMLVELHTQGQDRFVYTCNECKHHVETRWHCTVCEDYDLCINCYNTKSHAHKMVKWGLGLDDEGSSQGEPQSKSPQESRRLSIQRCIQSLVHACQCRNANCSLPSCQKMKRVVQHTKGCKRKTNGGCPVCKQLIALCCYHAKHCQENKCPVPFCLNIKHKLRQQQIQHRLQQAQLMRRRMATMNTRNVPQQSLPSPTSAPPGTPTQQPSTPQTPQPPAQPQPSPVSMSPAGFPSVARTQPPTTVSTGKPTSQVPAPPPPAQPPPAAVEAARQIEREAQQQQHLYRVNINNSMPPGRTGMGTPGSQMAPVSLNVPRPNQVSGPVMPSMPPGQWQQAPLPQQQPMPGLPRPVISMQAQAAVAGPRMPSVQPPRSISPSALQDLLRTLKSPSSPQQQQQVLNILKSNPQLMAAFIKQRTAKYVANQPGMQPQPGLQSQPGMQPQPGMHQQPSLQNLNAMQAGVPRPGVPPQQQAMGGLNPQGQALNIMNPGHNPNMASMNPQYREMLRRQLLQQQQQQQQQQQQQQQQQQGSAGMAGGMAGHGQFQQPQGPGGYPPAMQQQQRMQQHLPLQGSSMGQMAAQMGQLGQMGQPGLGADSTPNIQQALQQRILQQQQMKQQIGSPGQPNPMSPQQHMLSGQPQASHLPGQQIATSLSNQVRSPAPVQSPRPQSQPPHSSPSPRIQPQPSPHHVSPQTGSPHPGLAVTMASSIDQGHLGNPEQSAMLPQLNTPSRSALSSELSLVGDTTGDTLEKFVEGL

The target of assay [1] is CREB-binding protein (human (endogenous in MDA-MB-231)) (UniProt Q92793). Kind of assay: co-IP; MDA-MB-231 cells transfected with vector, p53 or p53 K382R plasmid; precipitated with an anti-CBP antibody; western blot (Fig. 6K, L).
The target is the same in assay [2]. Kind of assay: co-IP; MDA-MB-231 cell lysate in IP lysis buffer with protease inhibitors; specific antibodies overnight at 4 °C, protein A/G beads 1 h at 25 °C; western blot (Fig. 6A, C-E). (A western blot detects proteins with antibodies after separation by electrophoresis.)
Assay [3] shares this target. Kind of assay: co-IP; endogenous CBP precipitated with an anti-CBP antibody from control or FXR-overexpression cells; western blot (Fig. 6H).

No constants are given. Whether binding was seen depends on the method and setting. Binding seen in cells or lysates may run through a third protein. Some entries that bind do so weakly or less than the wild type. For part of these data: Sequences can lack the tags named with a protein.

B1: Farnesoid X receptor (protein, UniProt Q96RI1 1-486)
chain: MVMQFQGLENPIQISPHCSCTPSGFFMEMMSMKPAKGVLTEQVAGPLGQNLEVEPYSQYSNVQFPQVQPQISSSSYYSNLGFYPQQPEEWYSPGIYELRRMPAETLYQGETEVAEMPVTKKPRMGASAGRIKGDELCVVCGDRASGYHYNALTCEGCKGFFRRSITKNAVYKCKNGGNCVMDMYMRRKCQECRLRKCKEMGMLAECMYTGLLTEIQCKSKRLRKNVKQHADQTVNEDSEGRDLRQVTSTTKSCREKTELTPDQQTLLHFIMDSYNKQRMPQEITNKILKEEFSAEENFLILTEMATNHVQVLVEFTKKLPGFQTLDHEDQIALLKGSAVEAMFLRSAEIFNKKLPSGHSDLLEERIRNSGISDEYITPMFSFYKSIGELKMTQEEYALLTAIVILSPDRQYIKDREAVEKLQEPLLDVLQKLCKIHQPENPQHFACLLGRLTELRTFNHHHAEMLMSWRVNDHKFTPLLCEIWDVQ
For the molecule B1, the binding entry in assay [1] and in assay [2] was “binds” in each case.

B2: Flag-FXR (protein, UniProt Q96RI1 1-486)
chain: MVMQFQGLENPIQISPHCSCTPSGFFMEMMSMKPAKGVLTEQVAGPLGQNLEVEPYSQYSNVQFPQVQPQISSSSYYSNLGFYPQQPEEWYSPGIYELRRMPAETLYQGETEVAEMPVTKKPRMGASAGRIKGDELCVVCGDRASGYHYNALTCEGCKGFFRRSITKNAVYKCKNGGNCVMDMYMRRKCQECRLRKCKEMGMLAECMYTGLLTEIQCKSKRLRKNVKQHADQTVNEDSEGRDLRQVTSTTKSCREKTELTPDQQTLLHFIMDSYNKQRMPQEITNKILKEEFSAEENFLILTEMATNHVQVLVEFTKKLPGFQTLDHEDQIALLKGSAVEAMFLRSAEIFNKKLPSGHSDLLEERIRNSGISDEYITPMFSFYKSIGELKMTQEEYALLTAIVILSPDRQYIKDREAVEKLQEPLLDVLQKLCKIHQPENPQHFACLLGRLTELRTFNHHHAEMLMSWRVNDHKFTPLLCEIWDVQ
Turning to B2, the binding result in assay [3] is on record as “binds”.
